In patent US7846971B2, “N-halogenated amino acids, N,N-dihalogenated amino acids and derivatives; compositions and methods of using them” (Novabay Pharmaceuticals, Inc., priority 2005, dated 2010):
Some entries share one result that the patent states for a list of compounds. At least one structure is not confirmed: it was looked up by name or label, or the drawing left a doubt.

Tested on: mouse lung epithelial cells (L929)
Test: XTT cytotoxicity assay on L929 cells
Type: cell-based

Compound | viability (concentration 0.6 mM) | viability (concentration 0.02 mM)
OCl [OCl^−] | less than 50% | –
Povidone-Iodine | – | less than 50%
